Experimental data: article PMC3565976
No constants are given. Whether binding was seen depends on the method and setting. Binding seen in cells or lysates may run through a third protein. Some entries that bind do so weakly or less than the wild type.

By UniProt entry, the sequences of proteins in these tests, tags left out.
UniProt O70201: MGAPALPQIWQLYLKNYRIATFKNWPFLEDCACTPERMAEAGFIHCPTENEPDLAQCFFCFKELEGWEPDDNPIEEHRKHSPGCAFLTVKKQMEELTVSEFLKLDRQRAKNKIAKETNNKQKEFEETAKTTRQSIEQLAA
UniProt A0A9J7CH92: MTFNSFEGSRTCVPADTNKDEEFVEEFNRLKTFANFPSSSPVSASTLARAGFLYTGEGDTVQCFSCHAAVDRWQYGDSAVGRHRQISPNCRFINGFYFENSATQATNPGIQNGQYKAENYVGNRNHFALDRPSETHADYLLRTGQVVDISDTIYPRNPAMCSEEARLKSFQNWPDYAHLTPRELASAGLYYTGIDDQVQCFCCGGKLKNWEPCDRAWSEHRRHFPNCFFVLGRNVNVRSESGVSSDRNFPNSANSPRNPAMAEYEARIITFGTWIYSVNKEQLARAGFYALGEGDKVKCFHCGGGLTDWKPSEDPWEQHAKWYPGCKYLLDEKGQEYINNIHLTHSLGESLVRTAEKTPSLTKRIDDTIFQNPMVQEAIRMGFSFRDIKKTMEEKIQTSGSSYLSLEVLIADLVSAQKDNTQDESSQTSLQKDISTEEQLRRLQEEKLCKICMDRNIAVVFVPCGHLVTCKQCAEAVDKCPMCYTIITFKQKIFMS

Key:
[1] = target: enhanced green fluorescence protein-tagged Survivin (EGFP-Survivin) (mouse) (UniProt O70201); test: co-IP; detergent-soluble cytoplasmic fraction of CHE-p53-/- cells transfected with pEGFP-Survivin; precipitated with rabbit anti-XIAP polyclonal antibody on protein A Dynabeads and blotted with anti-GFP, and the reverse (anti-GFP precipitate blotted with anti-XIAP)
[2] = target: X-linked inhibitor of apoptosis protein (XIAP) (Chinese hamster (endogenous in CHE cells)); test: as above

Substance | binding [1] | binding [2]
X-linked inhibitor of apoptosis protein (XIAP) (from UniProt A0A9J7CH92 1-496) | binds | –
enhanced green fluorescence protein-tagged Survivin (EGFP-Survivin) (from UniProt O70201 1-140) | – | binds
